# Results from one PubChem assay

From PubChem BioAssay record AID912 (NCATS, 2007).

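Uptake of anthrax lethal toxin into cultured cells, read by FRET (460/530 nm ratio) and reported from the 460 nm channel; the cell line is not named here.
Each compound was tested as a concentration series from about 0.0005 to 40 µM.
The number is the fitted AC50 of the 460 nm signal alone; lower values mean a more potent effect. A falling signal goes with compounds filed as inhibitors or cytotoxic, a rising one with activators or fluorescent compounds (inferred from the filed classes).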

Values are in µM.
Common to all entries: measured here: 460 nm channel.
This is a side read-out of the assay, for part of the compounds, not drawn at random.
A potency from a partial, single-point or poor curve is only a rough figure.
The first word of each remark tells which way the curve ran; it can be opposite to the aim of the assay.

compound	AC50 (µM)	remark
CN1C(=O)CSc2ccc(NC(=O)N3CCc4ccccc43)cc21	12.59	rising, single point
COc1cc2cc(Oc3ccc4ccc(=O)oc4c3)c(=O)oc2cc1O	25.12	rising, partial curve
CCc1nc2ccccc2n1CC(=O)N(C(C)CC)C1CCS(=O)(=O)C1 (stereo unspecified)	0.01995	falling, full curve
CC(C)c1ccc(S(=O)(=O)N2CCN(C(=O)c3cccc(F)c3)CC2)cc1	3.981	rising, partial curve
O=C(CCCC(=O)N(CC(=O)NC1CCCC1)Cc1ccccc1Cl)Nc1ccccn1	25.12	rising, single point
Cc1cc(N2CCN(C)CC2)nc2ccc(NC(=O)c3ccc4c(c3)OCO4)cc12	10	falling, partial curve
CN(C)c1ccc(CNC23CN4CN(CN(C4)C2)C3)cc1	5.012	falling, single point
Nc1nc(SCC(=O)c2ccc(Oc3ccccc3)cc2)n[nH]1	5.012	falling, partial curve, poor fit
O=C(Nc1ccon1)c1cccc(Cl)c1	2.512	rising, partial curve
Cc1ccc2nc(NC(=O)C3CCCN(S(=O)(=O)c4cnc[nH]4)C3)sc2c1 (stereo unspecified)	5.012	falling, partial curve
COC(=O)[C@@]1(Cc2ccc(OC)cc2)[C@H]2c3cc(C(=O)N(C)C)n(Cc4ccc(C(F)(F)F)nc4)c3C[C@H]2CN1C(=O)c1ccccc1	15.85	rising, single point
O=C(c1cnccn1)N1CCC[C@@]2(CCN(c3ccccc3)C2)C1	0.7943	falling, full curve
CCCCC/C=C\C/C=C\C/C=C\C/C=C\CCCC(=O)Nc1ccc(O)cc1	25.12	falling, partial curve
Cn1c(CN2CCOCC2)nc2cc(NC(=O)c3ccc(Cl)cc3)ccc21	0.01	rising, full curve
CCOC(=O)N1CCN(c2ccc(S(=O)(=O)N(Cc3ccccc3)Cc3ccccc3)cn2)CC1	5.012	rising, single point
CCNc1ncc2nc(-c3cn(C)c4ccccc34)c(=O)n(Cc3cccs3)c2n1	0.1259	rising, full curve, poor fit
C=C(C)c1ccc(C(C)(C)NC(=O)NCc2ccco2)cc1	0.02512	falling, full curve, poor fit
CCCN1C(=O)c2ccccc2NC1c1ccc(OC)cc1OC (stereo unspecified)	5.012	rising, single point
O=c1c(-c2cccs2)nc2cnc(Oc3ccccc3)nc2n1Cc1cccs1	0.631	rising, full curve
COc1cccc2[nH]c3c(=O)n(CCN(C)C)cnc3c12	1.259	falling, full curve, poor fit
O=C(CN1CCCCC1)NCCNC(=O)CN1CCCCC1	25.12	falling, single point
CC1CN(c2nc3c(c(=O)n(Cc4ccc(Cl)cc4)c(=O)n3C)n2C)CC(C)O1 (stereo unspecified)	5.012	rising, single point
CCCOc1ccc(Br)cc1-c1cc(-c2ccc(Cl)cc2)[nH]c1-c1ccncc1	12.59	falling, partial curve
CCCCSCc1[nH]c(=O)[nH]c1C(=O)CCCCC(=O)OCC	12.59	rising, partial curve
O=C(Nc1cccc(F)c1)N1CCC2(CC1)CCN(C(=O)c1cccc(F)c1)CC2	0.02512	falling, full curve, poor fit
O=C(NCCc1c[nH]c2ccccc12)C1CCN(c2nnc(N3CCCC3=O)s2)CC1	12.59	rising, partial curve
N/C(CC/C(N)=N/O)=N\O	0.631	falling, single point
COc1ccc(NC(=O)c2ccco2)cc1NC(=O)c1cccs1	25.12	falling, single point
Cc1ccc2c(c1)c(C)c(C)n2CC(O)Cn1nc(C)c(Br)c1C (stereo unspecified)	0.3981	falling, single point
Cc1cc(C)c(S(=O)(=O)N(C)Cc2cnn(C)c2)c(C)c1	1.259	falling, partial curve
C[C@H]1C2=C3C(CC[C@H]4C(OCc5ccc(F)cc5C(F)(F)F)OC[C@](C)([C@@H]34)N(C(=O)OC(C)(C)C)C2)C2COC(=O)OCC21 (stereo partly specified)	15.85	rising, partial curve
CC(=O)c1ccccc1OCCn1nnc(-c2ccc(C)cc2)n1	0.0631	falling, full curve, poor fit
Cc1cc(NC(=O)CCCC(=O)N(CC(=O)NCCc2ccccc2)Cc2ccc(F)cc2)no1	25.12	rising, single point
COCC(=O)N1CCC2(CCCN(C(=O)Nc3ccc(OC)cc3)C2)CC1	31.62	falling, single point
O=C(CCCn1c(=S)[nH]c2ccsc2c1=O)NCc1ccco1	0.1995	rising, full curve, poor fit
CCOC(=O)c1c(C)[nH]c(C)c1C(=O)Cn1nnc(-c2ccccc2C)n1	10	falling, single point
CCOc1ccc(C(N)=O)cc1OC	15.85	falling, partial curve
COc1ccc(-n2nnc3c(=O)n(C/C=C/c4ccccc4)cnc32)cc1	15.85	rising, partial curve
CCCOc1ccccc1C1C(C(=O)OC)=CN(C(C)C)C=C1C(=O)OC	10	rising, partial curve
COC(=O)c1sc(NC(=O)COc2ccccc2OC)nc1C	2.512	falling, single point
CN(C(=O)Cc1ccc(Cl)c(Cl)c1)[C@H](CN1CCCC1)c1ccccc1	15.85	falling, partial curve, poor fit
CCOC(=O)c1ccc(NC(=O)CSc2nc3c(c(=O)n2C)SC(C)C3)cc1 (stereo unspecified)	25.12	rising, single point
CC1CCCC(C)N1c1nnc(NC(=O)Cn2c(=O)oc3ccccc32)s1 (stereo unspecified)	3.981	rising, full curve, poor fit
CCOC(=O)C1CCCN(c2c(NCCCN(CC)c3ccccc3)c(=O)c2=O)C1 (stereo unspecified)	12.59	rising, single point
CN(Cc1cc2ccccc2[nH]c1=O)S(=O)(=O)c1ccccc1	6.31	falling, partial curve

Repeated from the top, 4 entries:

For CN1C(=O)CSc2ccc(NC(=O)N3CCc4ccccc43)cc21 the result was AC50 12.59 µM (rising, single point).
For COc1cc2cc(Oc3ccc4ccc(=O)oc4c3)c(=O)oc2cc1O the result was AC50 25.12 µM (rising, partial curve).
For CCc1nc2ccccc2n1CC(=O)N(C(C)CC)C1CCS(=O)(=O)C1 (stereo unspecified) the result was AC50 0.01995 µM (falling, full curve).
For CC(C)c1ccc(S(=O)(=O)N2CCN(C(=O)c3cccc(F)c3)CC2)cc1 the result was AC50 3.981 µM (rising, partial curve).